The target of series [1] is AR (Homo sapiens, UniProt P10275, T878A). Nature of the series: Effects of compounds on AR expression in LNCaP cells (ELISA, DC50). The note with it: read-out: LNCaP DC50, 24 hours of drug treatment, AR by ELISA. Here is the method:
Activity Assay Example 1: Effects of Compounds on AR Expression in LNCaP Cells
1. Cell Line and Cell Culture
Human prostate cancer cells LNCaP (Shanghai Chinese Academy of Sciences Cell Bank). LNCaP was cultured in 1640 medium containing 10% fetal bovine serum. The cells grow in clusters, with weak adhesion to the bottom of the culture flask, slow proliferation, with a multiplication time of 72 h. The cells are closely adhered to each other and need to be digested with 0.05% trypsin containing 0.025% EDTA. The cells were passaged every 3 days. The cells were cultured at 37° C. and 5% CO2 in a humidified incubator
2. Cell plating: The supernatant was discarded, and the Lncap cells in the logarithmic growth phase were taken, washed with PBS once, and added with appropriate 0.05% trypsin digestion solution to be fully digested into single cell suspension, and centrifuged, resuspended and counted to make the number of cells about 15,000 per well, then inoculated in a 96-well plate, placed at 37° C., 5% CO2 and cultured overnight for 24 h.
3. Preparation and Addition of Compound Solutions […]
4.6 The reaction wells were added with 100 ul/well of stop solution, mixed well and then the OD450 value was measured with a microplate reader. […]
In general terms: An ELISA detects its analyte on a solid surface through an enzyme-linked reagent.

By UniProt entry, the sequences of proteins in these tests, tags left out.
UniProt P10275, whole entry T878A: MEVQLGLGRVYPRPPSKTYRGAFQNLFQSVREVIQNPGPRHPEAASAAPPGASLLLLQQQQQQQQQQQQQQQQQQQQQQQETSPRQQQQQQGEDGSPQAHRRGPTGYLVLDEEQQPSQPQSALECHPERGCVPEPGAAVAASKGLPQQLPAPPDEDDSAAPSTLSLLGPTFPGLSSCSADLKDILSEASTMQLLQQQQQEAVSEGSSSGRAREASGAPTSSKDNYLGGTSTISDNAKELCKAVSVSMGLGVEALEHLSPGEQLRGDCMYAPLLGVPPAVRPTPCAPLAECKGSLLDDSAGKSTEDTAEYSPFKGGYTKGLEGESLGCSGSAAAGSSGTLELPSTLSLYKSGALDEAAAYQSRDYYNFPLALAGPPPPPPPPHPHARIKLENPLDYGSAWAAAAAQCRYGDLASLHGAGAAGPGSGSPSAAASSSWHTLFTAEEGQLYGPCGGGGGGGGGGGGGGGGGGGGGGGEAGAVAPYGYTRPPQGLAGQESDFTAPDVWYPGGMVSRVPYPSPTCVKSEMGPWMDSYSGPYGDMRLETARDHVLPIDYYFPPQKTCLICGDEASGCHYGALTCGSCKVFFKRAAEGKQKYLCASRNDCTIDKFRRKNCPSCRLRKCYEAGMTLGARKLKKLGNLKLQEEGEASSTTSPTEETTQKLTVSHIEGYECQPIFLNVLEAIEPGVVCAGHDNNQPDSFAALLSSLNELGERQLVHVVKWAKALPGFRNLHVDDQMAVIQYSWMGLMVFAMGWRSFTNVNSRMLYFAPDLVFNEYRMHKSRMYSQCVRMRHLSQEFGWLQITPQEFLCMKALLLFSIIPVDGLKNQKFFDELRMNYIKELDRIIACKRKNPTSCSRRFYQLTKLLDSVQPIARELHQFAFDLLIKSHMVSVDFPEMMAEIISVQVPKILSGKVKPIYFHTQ

Series [2] can be described thus: Pharmacokinetic studies of compounds in mice. Particulars: male mice, intragastric administration 10 mg/kg, plasma. Here is the method: Activity Assay Example 3: Pharmacokinetic Studies of Compounds in Mice
In this test, 3 male mice were selected and divided into 1 group, 3 mice/group. All animals were fasted overnight before administration.
The intragastric administration dose was 10 mg/kg, and the administration volume was 10 mL/kg.
2.2 Preparation of Drug Solution
According to the animal body weight combined with the administration dose, the amount of the required drug solution was calculated. […]
Before administration, the animals were weighed and the body weight of the animals involved in the experiment was recorded, and the administration volume of each animal was calculated according to the body weight. […]
After administration, whether animals had abnormal reactions was observed immediately. […] If abnormal reactions were found, they should be recorded in time, and the number of observations should be increased until the animals returned to normal or to the end of the experiment. […]
The collected plasma samples were handed over to the Pharmacokinetic department for sample extraction, and the test substances in the plasma were extracted by protein precipitation method using organic reagents containing internal standards (acetonitrile:plasma=4:1, v/v). The extracted processed samples were submitted for quantitative concentration analysis by LC-MS/MS. […]

Structures were worked out from names or drawings and are uncertain.

Turning to `Cc1ncsc1-c1ccc(CNC(=O)[C@@H]2C[C@@H](O)CN2C(=O)[C@@H](NC(=O)COCCOc2ccc(-c3ccc(N4C(=S)N(c5ccc(C#N)c(C(F)(F)F)c5F)C(=O)C4(C)C)cn3)cc2F)C(C)(C)C)cc1`, the DC50 in series [1] was 46.4 nM. Besides, the “eAUC0.5-2 h” value in series [2] is 191 ± 154 ng·h/mL.

These data come from patent publication US12606552B2, “Bifunctional compound, preparation method therefor, and use thereof” (SUZHOU KINTOR PHARMACEUTICALS, INC., priority 2020, dated 2026).
